Data as given in PubChem BioAssay AID602196 (INSERM, 2012).
Shown is one part, drawn at random, of about 23,000 reagents. Of all reagents, 455 (2%) are marked active. 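Active includes both protection and sensitisation; some change values fall well beyond the stated -50 to +50 range.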 The numbers tell different reagents against one gene apart. Further read-outs or replicates are left out here. The record does not give: the amount of reagent.

- Purpose: 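Modifiers of cisplatin sensitivity in A549 cells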
- Cells: human A549 lung cancer cells
- Reagent: siRNA pair against human genes
- Timing: 48 h transfection before cisplatin; time from cisplatin to read-out not stated
- Challenge: cisplatin at a dose killing half of control-siRNA cells; exact dose and duration not given
- Detection: 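Shift in cisplatin death relative to control siRNA, from -50 (all cells die) to +50 (no cells die); siRNAs harmful on their own scored 0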
- Scale: two-siRNA summed score (-2 to +2): higher = both siRNAs protect from cisplatin killing; -2 means both sensitise
- Hit rule: 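siRNAs harmful alone (LDH or WST-1) get 0; others get +1 for less and -1 for more cisplatin killing; genes are active when the two siRNAs give the same sign, summing to ±2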
- Calls: active = both siRNAs shift cisplatin killing the same way; inactive = no consistent shift, or siRNA harmful alone

{"gene symbol":"MYPN","reagent":1,"two-siRNA summed score (-2 to +2)":0,"call":"inactive"}
{"gene symbol":"NYX","reagent":1,"two-siRNA summed score (-2 to +2)":0,"call":"inactive"}
{"gene symbol":"HTR1B","reagent":1,"two-siRNA summed score (-2 to +2)":-1,"call":"inactive"}
{"gene symbol":"MED8","reagent":1,"two-siRNA summed score (-2 to +2)":0,"call":"inactive"}
{"gene symbol":"PRDX4","reagent":1,"two-siRNA summed score (-2 to +2)":-1,"call":"inactive"}
{"gene symbol":"GUSB","reagent":1,"two-siRNA summed score (-2 to +2)":-1,"call":"inactive"}
{"gene symbol":"ATP10A","reagent":1,"two-siRNA summed score (-2 to +2)":0,"call":"inactive"}
{"gene symbol":"NKAIN4","reagent":1,"two-siRNA summed score (-2 to +2)":0,"call":"inactive"}
{"gene symbol":"KRTAP21-2","reagent":1,"two-siRNA summed score (-2 to +2)":1,"call":"inactive"}
{"gene symbol":"LOC401061","reagent":1,"two-siRNA summed score (-2 to +2)":0,"call":"inactive"}
{"gene symbol":"GDF7","reagent":1,"two-siRNA summed score (-2 to +2)":0,"call":"inactive"}
{"gene symbol":"SNRPF","reagent":1,"two-siRNA summed score (-2 to +2)":0,"call":"inactive"}
{"gene symbol":"HRC","reagent":1,"two-siRNA summed score (-2 to +2)":1,"call":"inactive"}
{"gene symbol":"FCER1G","reagent":1,"two-siRNA summed score (-2 to +2)":0,"call":"inactive"}

3 entries from above in another layout:
gene symbol	reagent	two-siRNA summed score (-2 to +2)	call
PRDX4	1	-1	inactive
GUSB	1	-1	inactive
ATP10A	1	0	inactive

The list goes on:
{"gene symbol":"SLC16A8","reagent":1,"two-siRNA summed score (-2 to +2)":1,"call":"inactive"}
{"gene symbol":"SLC35A2","reagent":1,"two-siRNA summed score (-2 to +2)":0,"call":"inactive"}
{"gene symbol":"ZYG11A","reagent":1,"two-siRNA summed score (-2 to +2)":1,"call":"inactive"}
{"gene symbol":"NUDT2","reagent":1,"two-siRNA summed score (-2 to +2)":1,"call":"inactive"}
{"gene symbol":"CTBP1","reagent":1,"two-siRNA summed score (-2 to +2)":0,"call":"inactive"}
{"gene symbol":"CTBP1","reagent":2,"two-siRNA summed score (-2 to +2)":0,"call":"inactive"}
{"gene symbol":"AGK","reagent":1,"two-siRNA summed score (-2 to +2)":0,"call":"inactive"}
